Literature values as cited in patent US20050124645A1, “Methods and compositions for increasing CD4lymphocyte immune responsiveness” (priority 1998, published 2005).
For at least one compound, name, drawing or mass did not settle the structure.

Test system: HIF-1
Details: through inhibition of mTOR; Hudson et al. 2002; cited from earlier work

## CO[C@H]1C[C@@H]2CC[C@@H](C)[C@@](O)(O2)C(=O)C(=O)N2CCCC[C@H]2C(=O)O[C@H]([C@H](C)C[C@@H]2CC[C@@H](O)[C@H](OC)C2)CC(=O)[C@H](C)/C=C(\C)[C@@H](O)[C@@H](OC)C(=O)[C@H](C)C[C@H](C)/C=C/C=C/C=C/1C [Rapamycin, rapamycin]
  HIF-1 inhibition: inhibit
